Test results published in paper PMC2566595.
These are yes or no findings as the source states them, for the method shown. In cells and extracts the contact can be indirect. Some binding calls cover weakened binding; strength is not graded here.

Amino acid sequences for entries named in this document (tags omitted). A change or cut given only in a name is not applied to a line headed by its entry. Chains listed by the source or under a name are the forms on record and can include a tag or linker. Residues count along the entry.
UniProt Q676U5: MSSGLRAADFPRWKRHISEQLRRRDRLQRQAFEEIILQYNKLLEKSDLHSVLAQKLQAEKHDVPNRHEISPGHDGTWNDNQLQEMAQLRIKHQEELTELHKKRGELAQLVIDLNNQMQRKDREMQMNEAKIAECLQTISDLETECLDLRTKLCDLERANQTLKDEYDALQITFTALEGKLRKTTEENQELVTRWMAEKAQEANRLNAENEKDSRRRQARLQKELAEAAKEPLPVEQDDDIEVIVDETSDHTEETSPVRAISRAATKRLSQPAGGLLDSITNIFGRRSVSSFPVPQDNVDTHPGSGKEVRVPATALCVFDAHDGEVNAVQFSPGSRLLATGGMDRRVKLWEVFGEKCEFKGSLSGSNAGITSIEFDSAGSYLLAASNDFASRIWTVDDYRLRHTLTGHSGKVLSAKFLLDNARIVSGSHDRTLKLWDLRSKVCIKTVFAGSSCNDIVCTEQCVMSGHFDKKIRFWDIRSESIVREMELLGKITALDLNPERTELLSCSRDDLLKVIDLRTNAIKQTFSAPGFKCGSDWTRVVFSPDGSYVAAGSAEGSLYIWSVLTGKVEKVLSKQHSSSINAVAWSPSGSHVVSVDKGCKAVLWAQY
ATG16L1 ΔN (amino acids 85-607 of isoform 1, *300T), FLAG-tagged: residues 85-607 of Q676U5
ATG16L1 WD (amino acids 286-607 of isoform 1, *300T), FLAG-tagged: residues 286-607 of Q676U5
human ATG16L1 isoform 1, Crohn's disease-associated coding variant ATG16L1*300A (Q676U5-1, form named): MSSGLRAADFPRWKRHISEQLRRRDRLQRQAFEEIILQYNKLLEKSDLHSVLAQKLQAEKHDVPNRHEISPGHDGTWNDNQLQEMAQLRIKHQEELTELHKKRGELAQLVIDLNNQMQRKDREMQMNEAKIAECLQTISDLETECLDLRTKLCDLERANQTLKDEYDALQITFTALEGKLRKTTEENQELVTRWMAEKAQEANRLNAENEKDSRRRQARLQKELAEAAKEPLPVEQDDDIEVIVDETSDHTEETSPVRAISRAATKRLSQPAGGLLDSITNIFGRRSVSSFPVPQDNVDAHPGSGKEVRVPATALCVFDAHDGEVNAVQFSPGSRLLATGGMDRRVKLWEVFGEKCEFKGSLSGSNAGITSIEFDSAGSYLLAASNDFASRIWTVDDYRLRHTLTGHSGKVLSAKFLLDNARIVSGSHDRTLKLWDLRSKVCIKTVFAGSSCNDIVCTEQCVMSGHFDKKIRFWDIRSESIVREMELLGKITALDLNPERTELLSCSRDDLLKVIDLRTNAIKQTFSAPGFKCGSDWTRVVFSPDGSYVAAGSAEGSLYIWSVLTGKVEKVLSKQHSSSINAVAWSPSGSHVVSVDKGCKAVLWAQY

Experiments:
Experiment in all cases: co-IP; HEK293T cells co-transfected with N-terminally FLAG-tagged ATG16L1 constructs and MYC-tagged ATG16L1 or HA-tagged ATG5; lysed 40 h post-transfection; lysate incubated with anti-FLAG antibody and goat anti-mouse beads overnight at 4°C; Western blot with anti-MYC or anti-HA antibody
[1] = biological target: human ATG16L1 isoform 1, Crohn's disease-associated coding variant ATG16L1*300A (human) (UniProt Q676U5)
[2] = biological target: ATG16L1 ΔN (amino acids 85-607 of isoform 1, *300T), FLAG-tagged (human) (UniProt Q676U5)
[3] = biological target: human ATG16L1 isoform 1, ATG16L1*300T (human) (UniProt Q676U5)
[4] = biological target: ATG16L1 WD (amino acids 286-607 of isoform 1, *300T), FLAG-tagged (human) (UniProt Q676U5)

binding [1]	binding [2]	binding [3]	binding [4]	Substance
binds				human ATG16L1 isoform 1, Crohn's disease-associated coding variant ATG16L1*300A (from UniProt Q676U5-1 1-607)
	binds	binds	no binding	human ATG16L1 isoform 1, ATG16L1*300T (from UniProt Q676U5-1 1-607)
